Measurements published in publication PMC5670241.
No constants are given. Whether binding was seen depends on the method and setting. In cells and extracts the contact can be indirect. Some entries that bind do so weakly or less than the wild type.

By UniProt entry, the sequences of proteins in these tests, tags left out. Where a name states a change or a piece, a line headed by the entry shows the natural chain unless it says otherwise.
UniProt Q16659: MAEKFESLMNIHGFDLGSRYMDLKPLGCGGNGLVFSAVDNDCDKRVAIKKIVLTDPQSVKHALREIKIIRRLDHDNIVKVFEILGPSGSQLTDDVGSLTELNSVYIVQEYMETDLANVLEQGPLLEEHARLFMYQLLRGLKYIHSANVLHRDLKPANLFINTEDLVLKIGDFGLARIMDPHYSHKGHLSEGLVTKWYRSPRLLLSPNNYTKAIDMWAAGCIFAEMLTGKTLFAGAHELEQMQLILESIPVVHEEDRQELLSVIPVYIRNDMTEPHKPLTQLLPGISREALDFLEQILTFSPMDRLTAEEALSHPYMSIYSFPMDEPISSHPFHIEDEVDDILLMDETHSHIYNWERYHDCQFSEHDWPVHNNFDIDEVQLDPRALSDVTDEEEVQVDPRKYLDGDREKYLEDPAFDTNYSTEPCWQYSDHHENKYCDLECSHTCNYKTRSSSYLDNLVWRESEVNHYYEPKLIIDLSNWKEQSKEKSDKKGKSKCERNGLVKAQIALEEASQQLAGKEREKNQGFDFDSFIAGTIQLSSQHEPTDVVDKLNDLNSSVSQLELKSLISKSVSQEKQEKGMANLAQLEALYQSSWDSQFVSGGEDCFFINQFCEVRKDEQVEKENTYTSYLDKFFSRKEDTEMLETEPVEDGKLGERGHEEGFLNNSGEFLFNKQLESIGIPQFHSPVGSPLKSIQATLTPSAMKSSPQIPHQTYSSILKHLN
UniProt Q8IW41: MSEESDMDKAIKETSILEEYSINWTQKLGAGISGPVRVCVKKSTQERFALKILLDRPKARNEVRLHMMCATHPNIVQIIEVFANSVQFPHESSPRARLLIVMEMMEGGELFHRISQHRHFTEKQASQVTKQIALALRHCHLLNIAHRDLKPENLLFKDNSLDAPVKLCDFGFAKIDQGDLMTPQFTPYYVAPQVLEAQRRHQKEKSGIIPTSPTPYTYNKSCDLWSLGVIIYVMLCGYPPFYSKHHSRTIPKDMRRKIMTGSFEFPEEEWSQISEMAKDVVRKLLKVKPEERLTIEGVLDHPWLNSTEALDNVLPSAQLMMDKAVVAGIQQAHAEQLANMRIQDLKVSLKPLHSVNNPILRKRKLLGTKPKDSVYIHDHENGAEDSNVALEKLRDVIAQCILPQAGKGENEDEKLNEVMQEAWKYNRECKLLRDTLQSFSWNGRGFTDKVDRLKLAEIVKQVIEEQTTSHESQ
UniProt O14980: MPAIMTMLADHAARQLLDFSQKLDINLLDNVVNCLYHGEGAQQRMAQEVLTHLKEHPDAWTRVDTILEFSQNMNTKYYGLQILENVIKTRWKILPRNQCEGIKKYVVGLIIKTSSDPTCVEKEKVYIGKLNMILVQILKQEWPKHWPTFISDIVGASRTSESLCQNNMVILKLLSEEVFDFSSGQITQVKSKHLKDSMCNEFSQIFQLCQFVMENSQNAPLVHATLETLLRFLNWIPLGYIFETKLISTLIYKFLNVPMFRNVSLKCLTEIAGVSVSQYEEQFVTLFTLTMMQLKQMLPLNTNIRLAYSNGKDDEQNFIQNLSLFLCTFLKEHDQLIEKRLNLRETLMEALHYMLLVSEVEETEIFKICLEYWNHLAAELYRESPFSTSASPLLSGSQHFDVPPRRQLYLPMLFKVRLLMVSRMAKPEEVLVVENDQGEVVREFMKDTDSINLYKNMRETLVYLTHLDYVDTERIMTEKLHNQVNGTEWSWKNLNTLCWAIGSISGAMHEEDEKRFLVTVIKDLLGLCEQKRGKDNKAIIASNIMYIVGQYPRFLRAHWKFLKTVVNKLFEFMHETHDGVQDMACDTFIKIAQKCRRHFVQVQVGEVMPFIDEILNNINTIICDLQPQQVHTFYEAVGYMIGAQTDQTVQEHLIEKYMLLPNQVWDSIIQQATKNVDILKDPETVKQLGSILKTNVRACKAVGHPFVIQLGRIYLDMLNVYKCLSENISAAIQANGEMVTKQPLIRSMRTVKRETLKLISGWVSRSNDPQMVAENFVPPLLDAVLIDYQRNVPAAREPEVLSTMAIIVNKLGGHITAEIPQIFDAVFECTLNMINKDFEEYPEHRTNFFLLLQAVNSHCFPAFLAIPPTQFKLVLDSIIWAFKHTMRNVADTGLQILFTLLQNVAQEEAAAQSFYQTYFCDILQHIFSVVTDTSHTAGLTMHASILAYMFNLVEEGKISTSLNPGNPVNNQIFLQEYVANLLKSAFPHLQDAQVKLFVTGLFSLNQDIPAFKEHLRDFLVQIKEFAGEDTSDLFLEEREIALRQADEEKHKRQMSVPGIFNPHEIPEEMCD

Legend:
Experiment in all cases: co-IP; HA-tagged ERK3 proteins immunoprecipitated from lysates of transfected HeLa cells with anti-HA agarose beads; Western blotting for CRM1 and MK5; input 2%
[1] = biological target: HA-tagged wild type ERK3 (UniProt Q16659)
[2] = biological target: HA-tagged ERK3 L290P (UniProt Q16659)
[3] = biological target: HA-tagged ERK3 L290V (UniProt Q16659)

Measured: binding

MAPK-activated protein kinase-5 (MK5) (from UniProt Q8IW41 1-473)
binds: [1] | [2] | [3]

chromosomal maintenance 1 (CRM1) (from UniProt O14980 1-1071)
binds: [1] | [2] | [3]
